At least one structure is not confirmed: it was looked up by name or label, or the drawing left a doubt.
How the values were obtained:
Format in all cases: in vivo, C. elegans
[1] = tested on: pgp-5::gfp; assay: pgp-5::gfp induction in animals without germline translation mutation (toxin, RNAi, bile acids, lipid extracts); settings: wild type background, no other translational defect
Protocol: G418 (GoldBio) or hygromycin (GoldBio) was diluted in M9 to the desired concentration and added onto preseeded OP50 E. coli bacteria containing NGM plates. The plates were dried uncovered in the hood for at least 1 hour before seeding the worms. For the drug experiments, synchronized L1-stage animals were dropped onto the drug containing plates and scored later. For drug resistance assays synchronized L1 larval stage animals of the appropriate genotype were fed with either control RNAi or with RNAi clones targeting bile acid biosynthetic pathways until they reach day two of adulthood. Subsequently, the RNAi-treated animals were egg-prepped to obtain synchronized L1 larvae. ˜100 L1 larvae were added to the plates containing G418. 100 nM of Δ^4-Dafachronic Acid or (25S)-Δ^7-Dafachronic Acid from Cayman Chemical were used.
Nematodes were mounted onto agar pads and images were taken using a Zeiss AXIO Imager Z1 microscope fitted with a Zeiss AxioCam HRm camera and Axiovision 4.6 (Zeiss) software. Fluorescent images were converted to 16-bit images, thresholded and quantified using ImageJ. […]
RNAi bacteria expressing the dsRNA corresponding to each worm gene were grown in LB media with 25 μg/ml carbenicillin overnight and seeded onto RNAi agar plates containing 1 mM IPTG. […] In the primary screen, the plates were screened visually for changes in GFP fluorescence and worm developmental defects. […]

[2] = tested on: pgp-5 mRNA; assay: qRT-PCR of pgp-5 mRNA; settings: fold change compared to untreated / control RNAi wildtype animals
[3] = tested on: pgp-6 mRNA; assay: qRT-PCR of pgp-6 mRNA; settings: fold change compared to non-toxin-treated wildtype animals
[4] = tested on: mrp-1/multidrug resistance protein homolog mRNA; assay: qRT-PCR of mrp-1 mRNA; settings: fold change compared to non-toxin-treated wildtype animals

Which “pgp-5::gfp induction” value [1] does the source give for CN[C@@H]1[C@@H](O)[C@@H](O[C@@H]2[C@@H](O)[C@H](O[C@H]3O[C@H]([C@@H](C)O)[C@@H](O)[C@H](O)[C@H]3N)[C@@H](N)C[C@H]2N)OC[C@]1(C)O [G418] here?
The value was “induces pgp-5::gfp expression in the intestine”.

What about the “pgp-5 mRNA induction by qRT-PCR” value [2] of the same molecule?
The value was “induces pgp-S and pgp-6 mRNA”.

And the “pgp-6 mRNA induction by qRT-PCR” value [3]?
Its value is “induces pgp-S and pgp-6 mRNA”.

What about the “mrp-1 mRNA induction by qRT-PCR” value [4] of the same molecule?
The value was “not mrp-1/multidrug resistance protein homolog mRNA”.

— patent publication US12065648B2, “Methods and compositions for inhibiting detoxification response” (priority 2015, dated 2024)
